{
  "source": "patent US20240108662A1",
  "about": "“ENGINEERED CELLS FUNCTIONALIZED WITH IMMUNE CHECKPOINT MOLECULES AND USES THEREOF” (The University of North Carolina at Chapel Hill, priority 2020, published 2024)",
  "molecules": {"B1": {"name": "P57791 (protein, UniProt P57791 1-329, looked up)", "chain": "MAALGGDGLRLLSVSRPERQPESAALSGPGSGLCCWVSVFSCFSLACSYVGSLYVWKSELPRDHPAVIKRRSTSVLVVSSLSPLCVLLWRELTGIQPGTSLLTLMGFRLEGIFPAALLPLLLTMILFLGPLMQLSMDCPCDLTDGLKVVLAPRSWARCLTDMRWLRNQVIAPLTEELVFRACMLPMLAPCTGLGPAVFTCPLFFGVAHFHHIIEQLRFRQSSVGSIFVSAAFQFSYTAVFGAYTAFLFIRTGHLIGPVLCHSFCNYMGFPAVCAALEHPQKWPLLAGYALGVGLFLLLLQPLTDPKLYGSLPLCMLLERTGASETLLCS", "modifications": "full-length"}, "B2": {"name": "Q8BHD7 (protein, UniProt Q8BHD7 1-523, looked up)", "chain": "MNSSTSAGVYANGNDNKKFKGDRPPCSPSRVLHLRKIPCDVTEAEVISLGLPFGKVTNLLMLKGKSQAFLEMASEEAAVTMINYYTPVTPHLRSQPVYIQYSNHRELKTDNLPNQARAQAALQAVSAVQSGNLSLPGATANEGTLLPGQSPVLRIIIENLFYPVTLEVLHQIFSKFGTVLKIITFTKNNQFQALLQYADPVNAQYAKMALDGQNIYNACCTLRIDFSKLTSLNVKYNNDKSRDFTRLDLPTGDGQPSLEPPMAAAFGAPGIMSSPYAGAAGFAPAIAFPQAAGLSVPAVPGALGPLTLTSSAVSGRMAIPGASGMPGNSVLLVTNLNPDFITPHGLFILFGVYGDVHRVKIMFNKKENALVQMADASQAQLAMNHLSGQRLYGKVLRATLSKHQAVQLPREGQEDQGLTKDFSNSPLHRFKKPGSKNFQNIFPPSATLHLSNIPPSVTMDDLKNLFTEAGCSVKAFKFFQKDRKMALIQLGSVEEAIQALIELHNHDLGENHHLRVSFSKSTI", "modifications": "full-length"}, "B3": {"name": "Q8CI11 (protein, UniProt Q8CI11 1-538, looked up)", "chain": "MKRPKLKKASKRMTCHKRYKIQKKVREHHRKLRKEAKKRGHKKPRKDPGVPNSAPFKEALLREAELRKQQLEELKQQQKLDRQKEQERKRKLEVSPGDEQSNVETREESDEPKRKKAKAGKQNPKKLHCQELKKVIEASDIVLEVLDARDPLGCRCPQIEEAVIQSGSKKLILVLNKSDLVPKENLENWLNYLNKELPTVVFKASTNLKNRKTFKIKKKKVVPFQSKICCGKEALWKLLGDFQQSCGKDIQVGVIGFPNVGKSSVINSLKQEWICNVGISMGLTRSMQIVPLDKQITIIDSPCLIISPCNSPTALALRSPASIEELRPLEAASAILSQADNEQVVLKYTVPEYKDSLHFFTKLAQRRGLHQKGGSPNVESAAKLVWSEWTGASLGYYCHPPASWNHSLHFNENIAAVMKKGFNLEELEKNNAHSIQVLKGPHLTNRILFRSSGLTNGILDEKDIVEESPRQTEDKQDADDQENGSGERNAEISDVAPVEETRELSPEQSTAGKPSDGSSALDRASQEDETYDFTTDYI", "modifications": "full-length"}, "B4": {"name": "Q5XJY4 (protein, UniProt Q5XJY4 1-377, looked up)", "chain": "MALQGWVQRGWRCGPAWAPPLGGGYRELSATQAPRLLGRRFNLFVQQKCGFRKAPRKVEPRRSDTGSSGEAYKRSALIPPLEETVFYPSPYPIRTLVKPFFFTIGFTGCAFGSAAIWQYESLKSRVQSYFDGIKADWLDSIRPQKEGNLRKEINKWWNSLSDGQRTVTGIIAANALVFCLWRVPSLQRTMIRYFTSNPASKVLCSPMLLSTFSHFSLFHMAANMYVLWSFSSSIVNILGQEQFVAVYLSAGVISNFVSYVCKVATGRYGPSLGASGAIMTVLAAVCTKIPEGRLAIIFLPVFTFTAGNALKAIIAMDTAGMILGWKFFDHAAHLGGALFGIWYITYGHELIWKNREPLVKIWHEIRTNGPKKGGGSK", "modifications": "full-length"}, "B5": {"name": "Q9ERG0 (protein, UniProt Q9ERG0 1-753, looked up)", "chain": "MESTPFNRRQWTSLSLRVTAKELSLVNKNKSSAIVEIFSKYQKAAEEANMERKKNNPESLPQHFRRGTLSVLKKKWENPVAGAEFHTDSLPNSSSEGGHTADYPPAEVTDKPAPGVRADREEHTQPKPRFGSRPEAVIQSRYPRSENSHDFKAQATESQKMENCLGDSRHEAEKPETSENTETSGKIEKYNVPLNRLKMMFEKGEHNQTKSLWTQSRNAGGRRLSENNCSLDDWEIGAGHLSSSAFNSEKNESKRNLELPRLSETSIKDRMAKYQAAVSKQSSPASYTNELKTSESKTHKWEQKENVPPGPEACSVHQEGSKVSTTENSLVALSVPAEDDTCNSQVKSEAQQPMHPKPLSPDARTSSLPESSPSKTAKKFQAPAKESCVECQKTVYPMERLLANQQVFHISCFRCSYCNNKLSLGTYASLHGRIYCKPHFNQLFKSKGNYDEGFGHKQHKDLWASKSDNEETLGRPAQPPNAGESPHSPGVEDAPIAKVGVLAASMEAKASSQREREDKPAETKKLRIAWPPPAELGGSGSALEEGIKVSKPKWPPEDDVCKTEAPEDVDLDLKKLRRSSSLKERSRPFTVAASFRTSSIKSPKASSPSLRKGWSESEQSEEFGGGIATMERKQTENARPSGEKENVGKSRWQGEEVPRSKDRSSFELESENFMENGANIAEDDNHVHAQQSPLEPEAPGWSGFVDTTAAKEFTTQNQKSQDVGFWEGEVVRELSVEEQIKRNRYYDEDEDEE", "modifications": "full-length"}, "B6": {"name": "P55937 (protein, UniProt P55937 1-1487, looked up)", "chain": "MDGASAKQDGLWESKSSSDVSSCPEASLETVGSLARLPDQQDTAQDASVEVNRGFKEEGSPDRSSQVAICQNGQIPDLQLSLDPTTSPVGPDASTGVDGFHDNLRNSQGTSAEGSVRKEALQSLRLSLPMQETQLCSTASSLPLEKEEQVRLQARKRLEEQLMQYRVKRHRERSSQPATKMKLFSTLDPELMLNPENLPRASTVAVTKEYSFLRTSVPRGPKVGSLGLLAHSKEKKNSKSSKIRSLADYRTEDPSDSGGLGSTADAVGSSLKQSRSSTSVVSEVSPSSETDNRVESASMTGDSVSEADGNESDSSSHSSLSARGACGVLGNVGMPGTAYMVDGQEISAEALGQFPSIKDVLQAAAAQHQDQNQEANGEVRSRRDSICSSVSMESSLAEPQDELLQILKDKRRLEGQVEALSLEASQALQEKAELQAQLAALSTRLQAQVEHSHSSQQKQDSLSSEVDTLKQSCWDLGRAMTDLQSMLEAKNASLASSNNDLQVAEEQYQRLMAKVEDMQRNILSKDNTVHDLRQQMTALQSQLQQVQLERTTLTSKLQASQAEITSLQHARQWYQQQLTLAQEARVRLQGEMAHIQVGQMTQAGLLEHLKLENVSLSHQLTETQHRSIKEKERIAVQLQSIEADMLDQEAAFVQIREAKTMVEEDLQRRLEEFEGEREQLQKVADAAASLEQQLEQVKLTLFQRDQQLAALQQEHLDVIKQLTSTQEALQAKGQSLDDLHTRYDELQARLEELQREADSREDAIHFLQNEKIVLEVALQSAKSDKEELDRGARRLEEDTEETSGLLEQLRQDLAVKSNQVEHLQQETATLRKQMQKVKEQFVQQKVMVEAYRRDATSKDQLINELKATKKRLDSEMKELRQELIKLQGEKKTVEVEHSRLQKDMSLVHQQMAELEGHLQSVQKERDEMEIHLQSLKFDKEQMIALTEANETLKKQIEELQQEAKKAITEQKQKMKRLGSDLTSAQKEMKTKHKAYENAVSILSRRLQEALASKEATDAELNQLRAQSTGGSSDPVLHEKIRALEVELQNVGQSKILLEKELQEVITMTSQELEESREKVLELEDELQESRGFRRKIKRLEESNKKLALELEHERGKLTGLGQSNAALREHNSILETALAKREADLVQLNLQVQAVLQRKEEEDRQMKQLVQALQVSLEKEKMEVNSLKEQMAAARIEAGHNRRHFKAATLELSEVKKELQAKEHLVQTLQAEVDELQIQDGKHSQEIAQFQTELAEARTQLQLLQKKLDEQMSQQPTGSQEMEDLKWELDQKEREIQSLKQQLDLTEQQGKKELEGTQQTLQTIKSELEMVQEDLSETQKDKFMLQAKVSELKNNMKTLLQQNQQLKLDLRRGAAKKKEPKGESNSSSPATPIKIPDCPVPASLLEELLRPPPAVSKEPLKNLNNCLQQLKQEMDSLQRQMEEHTITVHESLSSWAQVEAAPAEHAHPRGDTKLHNQNSVPRDGLGQ", "modifications": "full-length"}, "B7": {"name": "Q569Z6 (protein, UniProt Q569Z6 1-951, looked up)", "chain": "MSKTNKSKSGSRSSRSRSASRSRSRSFSKSRSRSRSVSRSRKRRLSSRSRSRSYSPAHNRERNHPRVYQNRDFRGHNRGYRRPYYFRGRNRGFYPWGQYNRGGYGNYRSNWQNYRQAYSPRRGRSRSRSPKRRSPSPRSRSHSRNSDKSSSDRSRRSSSSRSSSNHSRVESSKRKSTKEKKSSSKDSRPSQAAGDNQGDEAKEQTFSGGTSQDIKGSESSKPWPDATTYGAGSASRASVSDLSPRERSPALKSPLQSVVVRRRSPRPSPVPKPSPPLSNASQMGSSMSGGAGYQSGAHQGQFDHGSGSLSPSKKSPVGKSPPATGSAYGSSQKEESAASGGAAYSKRYLEEQKTENGKDKEQKQTNADKEKLKEKGGFSDADVKMKSDPFAPKTDSEKPFRGSQSPKRYKLRDDFEKKMADFHKEELDEHDKDKSKGRKEPEFDDEPKFMSKVIAGASKNQEEEKSGKWESLHTGKEKQRKAEEMEDEPFTERSRKEERGGSKRSESGHRGFVPEKNFRVTAYKAVQEKSSSPPPRKTSESRDKLGSKGDFSSGKSSFSITREAQVNVRMDSFDEDLARPSGLLAQERKLCRDLVHSNKKEQEFRSIFQHIQSAQSQRSPSELFAQHIVTIVHHVKEHHFGSSGMTLHERFTKYLKRGNEQEAAKNKKSPEIHRRIDISPSTFRKHGLTHEELKSPREPGYKAEGKYKDDPVDLRLDIERRKKHKERDLKRGKSRESVDSRDSSHSRERSTEKTEKTHKGSKKQKKHRRARDRSRSSSSSSQSSHSYKAEEYPEEAEEREESTSGFDKSRLGTKDFVGPNERGGRARGTFQFRARGRGWGRGNYSGNNNNNSNNDFQKRSREEEWDPEYTPKSKKYYLHDDREGEGSDKWMGRGRGRGAFPRGRGRFMFRKSSTSPKWAHDKFSGEEGEIEDDESGTENREEKDSLQPSAE", "modifications": "full-length"}, "B8": {"name": "Q91XB7 (protein, UniProt Q91XB7 1-293, looked up)", "chain": "MAYHSAYGVHGSKHRTRAAPDPPPLFDDTSGGYSSQLGGYPAPGADVAFSVNNLLGDPVANMAMAYGTSIASQGKDIVHKELHRFVSVNKLKYFFAVDTAYVAKKLGLLVFPYTHQNWKMQYSHDVPLPPRKDLNAPDLYIPTMAFITYVLLAGMALGIQQRFSPEVLGLCASTALVWVFMEVLALLLGLYLATVRSELSTFHLLAYSGYKYVGMILSVLTGLLFGSDGYYVALAWTSSALMYFIVRSLRTAASGPDSMGGPAPRQRLQLYLTLGAAAFQPLIIYWLTFHLVR", "modifications": "full-length"}},
  "data": [
    {"assay": "Proteomic analysis of native murine pancreata and decelled pancreatic ECM (Table 1)", "parameters": "species or system mouse", "conditions": "abundance of the listed protein in decelled pancreatic ECM", "units": {"Pancreatic ECM: Mean of log2(intensities)": "a.u."}, "values": [
      {"molecule": "B1", "Pancreatic ECM: Mean of log2(intensities)": 24.73},
      {"molecule": "B2", "Pancreatic ECM: Mean of log2(intensities)": 25.41},
      {"molecule": "B3", "Pancreatic ECM: Mean of log2(intensities)": 24.78},
      {"molecule": "B4", "Pancreatic ECM: Mean of log2(intensities)": 25.07},
      {"molecule": "B5", "Pancreatic ECM: Mean of log2(intensities)": 24.71},
      {"molecule": "B6", "Pancreatic ECM: Mean of log2(intensities)": 25.70},
      {"molecule": "B7", "Pancreatic ECM: Mean of log2(intensities)": 25.65},
      {"molecule": "B8", "Pancreatic ECM: Mean of log2(intensities)": 25.24}
    ]},
    {"assay": "Proteomic analysis of native murine pancreata and decelled pancreatic ECM (Table 1)", "parameters": "species or system mouse", "conditions": "abundance of the listed protein in native murine pancreas tissue", "units": {"Native pancreas tissue: Mean of log2(intensities)": "a.u."}, "values": [
      {"molecule": "B1", "Native pancreas tissue: Mean of log2(intensities)": 21.69},
      {"molecule": "B2", "Native pancreas tissue: Mean of log2(intensities)": 22.40},
      {"molecule": "B3", "Native pancreas tissue: Mean of log2(intensities)": 21.75},
      {"molecule": "B4", "Native pancreas tissue: Mean of log2(intensities)": 22.03},
      {"molecule": "B5", "Native pancreas tissue: Mean of log2(intensities)": 21.70},
      {"molecule": "B6", "Native pancreas tissue: Mean of log2(intensities)": 22.68},
      {"molecule": "B7", "Native pancreas tissue: Mean of log2(intensities)": 22.61},
      {"molecule": "B8", "Native pancreas tissue: Mean of log2(intensities)": 22.23}
    ]}
  ]
}
